In the supplement of paper PMC10849652:
Some of the results follow.

Sequences of proteins named here, by UniProt entry; tags and fusion partners are left off. A change or cut given only in a name is not applied to a line headed by its entry.
UniProt Q92947: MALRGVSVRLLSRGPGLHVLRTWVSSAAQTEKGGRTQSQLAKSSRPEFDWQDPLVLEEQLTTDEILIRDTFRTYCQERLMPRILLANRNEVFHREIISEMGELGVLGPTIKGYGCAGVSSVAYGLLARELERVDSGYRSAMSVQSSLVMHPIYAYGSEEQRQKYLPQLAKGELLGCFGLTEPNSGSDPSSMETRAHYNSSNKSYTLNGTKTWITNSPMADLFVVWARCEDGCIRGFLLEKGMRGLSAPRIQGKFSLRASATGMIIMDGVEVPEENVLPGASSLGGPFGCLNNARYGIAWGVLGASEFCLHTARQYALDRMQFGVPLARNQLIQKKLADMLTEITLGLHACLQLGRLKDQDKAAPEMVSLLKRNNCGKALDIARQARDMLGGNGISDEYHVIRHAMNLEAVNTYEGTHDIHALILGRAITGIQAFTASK
UniProt P60520, whole entry, looked up: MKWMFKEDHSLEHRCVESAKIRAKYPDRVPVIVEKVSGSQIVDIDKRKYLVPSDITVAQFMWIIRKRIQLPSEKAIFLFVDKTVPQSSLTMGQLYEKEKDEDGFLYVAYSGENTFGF
UniProt Q9H2C0: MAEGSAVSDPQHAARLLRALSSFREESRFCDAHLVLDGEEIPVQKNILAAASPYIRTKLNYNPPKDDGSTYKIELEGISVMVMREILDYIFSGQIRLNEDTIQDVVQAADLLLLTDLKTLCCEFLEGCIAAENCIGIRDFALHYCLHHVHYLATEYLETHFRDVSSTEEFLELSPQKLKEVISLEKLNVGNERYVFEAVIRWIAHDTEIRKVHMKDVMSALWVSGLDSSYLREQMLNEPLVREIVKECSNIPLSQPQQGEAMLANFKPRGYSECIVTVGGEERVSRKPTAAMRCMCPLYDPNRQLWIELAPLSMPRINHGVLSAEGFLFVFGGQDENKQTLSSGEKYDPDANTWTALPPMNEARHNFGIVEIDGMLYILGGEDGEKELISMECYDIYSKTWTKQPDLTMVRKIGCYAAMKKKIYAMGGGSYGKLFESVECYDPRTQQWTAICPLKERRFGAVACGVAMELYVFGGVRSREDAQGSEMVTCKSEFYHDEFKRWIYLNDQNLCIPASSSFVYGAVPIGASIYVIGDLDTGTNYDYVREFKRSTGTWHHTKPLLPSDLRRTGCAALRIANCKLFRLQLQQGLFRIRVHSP
UniProt Q10471: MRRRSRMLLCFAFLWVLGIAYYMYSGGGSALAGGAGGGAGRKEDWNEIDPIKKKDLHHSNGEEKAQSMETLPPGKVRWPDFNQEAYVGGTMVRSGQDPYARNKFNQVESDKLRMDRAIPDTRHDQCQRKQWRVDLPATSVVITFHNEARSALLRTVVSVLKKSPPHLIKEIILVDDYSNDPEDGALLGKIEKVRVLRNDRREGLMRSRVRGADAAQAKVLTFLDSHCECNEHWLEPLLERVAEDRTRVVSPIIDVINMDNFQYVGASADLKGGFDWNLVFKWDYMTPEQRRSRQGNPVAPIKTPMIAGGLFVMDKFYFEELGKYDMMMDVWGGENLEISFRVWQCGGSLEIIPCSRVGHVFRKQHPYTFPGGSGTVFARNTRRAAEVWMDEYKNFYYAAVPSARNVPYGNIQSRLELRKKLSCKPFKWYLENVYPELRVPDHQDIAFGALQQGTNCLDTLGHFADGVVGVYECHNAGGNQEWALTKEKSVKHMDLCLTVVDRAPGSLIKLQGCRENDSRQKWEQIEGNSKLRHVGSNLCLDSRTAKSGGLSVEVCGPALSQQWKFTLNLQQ
UniProt P04066: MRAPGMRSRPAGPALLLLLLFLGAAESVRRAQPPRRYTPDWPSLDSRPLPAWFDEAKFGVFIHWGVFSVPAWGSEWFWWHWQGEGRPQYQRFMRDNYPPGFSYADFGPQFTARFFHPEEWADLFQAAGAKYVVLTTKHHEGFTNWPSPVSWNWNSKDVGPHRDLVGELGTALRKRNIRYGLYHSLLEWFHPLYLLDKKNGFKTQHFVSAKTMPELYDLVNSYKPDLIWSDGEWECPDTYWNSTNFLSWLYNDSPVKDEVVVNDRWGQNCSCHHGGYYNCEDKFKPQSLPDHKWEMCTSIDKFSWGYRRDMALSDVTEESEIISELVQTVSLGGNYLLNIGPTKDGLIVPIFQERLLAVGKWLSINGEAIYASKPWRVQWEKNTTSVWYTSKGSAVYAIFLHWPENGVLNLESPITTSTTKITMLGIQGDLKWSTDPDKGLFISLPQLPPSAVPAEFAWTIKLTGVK
UniProt Q06210: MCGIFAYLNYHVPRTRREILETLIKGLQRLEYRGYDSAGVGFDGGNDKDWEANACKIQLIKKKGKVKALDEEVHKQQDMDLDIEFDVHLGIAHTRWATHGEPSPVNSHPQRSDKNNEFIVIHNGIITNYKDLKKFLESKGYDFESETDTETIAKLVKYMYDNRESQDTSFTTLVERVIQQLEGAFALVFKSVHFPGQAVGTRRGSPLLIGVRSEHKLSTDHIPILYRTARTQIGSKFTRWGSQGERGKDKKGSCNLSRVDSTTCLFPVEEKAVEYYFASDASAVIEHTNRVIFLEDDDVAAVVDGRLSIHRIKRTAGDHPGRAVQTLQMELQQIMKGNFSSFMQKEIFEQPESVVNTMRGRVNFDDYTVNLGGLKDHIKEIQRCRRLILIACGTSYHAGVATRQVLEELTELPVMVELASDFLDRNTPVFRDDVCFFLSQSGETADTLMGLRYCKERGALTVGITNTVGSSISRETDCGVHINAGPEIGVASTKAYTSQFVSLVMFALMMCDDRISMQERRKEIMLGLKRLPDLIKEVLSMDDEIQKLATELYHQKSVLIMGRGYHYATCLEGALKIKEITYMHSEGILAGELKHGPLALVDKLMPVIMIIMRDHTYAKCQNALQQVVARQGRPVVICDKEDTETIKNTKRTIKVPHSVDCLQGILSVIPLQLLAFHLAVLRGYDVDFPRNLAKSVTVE
UniProt Q04446: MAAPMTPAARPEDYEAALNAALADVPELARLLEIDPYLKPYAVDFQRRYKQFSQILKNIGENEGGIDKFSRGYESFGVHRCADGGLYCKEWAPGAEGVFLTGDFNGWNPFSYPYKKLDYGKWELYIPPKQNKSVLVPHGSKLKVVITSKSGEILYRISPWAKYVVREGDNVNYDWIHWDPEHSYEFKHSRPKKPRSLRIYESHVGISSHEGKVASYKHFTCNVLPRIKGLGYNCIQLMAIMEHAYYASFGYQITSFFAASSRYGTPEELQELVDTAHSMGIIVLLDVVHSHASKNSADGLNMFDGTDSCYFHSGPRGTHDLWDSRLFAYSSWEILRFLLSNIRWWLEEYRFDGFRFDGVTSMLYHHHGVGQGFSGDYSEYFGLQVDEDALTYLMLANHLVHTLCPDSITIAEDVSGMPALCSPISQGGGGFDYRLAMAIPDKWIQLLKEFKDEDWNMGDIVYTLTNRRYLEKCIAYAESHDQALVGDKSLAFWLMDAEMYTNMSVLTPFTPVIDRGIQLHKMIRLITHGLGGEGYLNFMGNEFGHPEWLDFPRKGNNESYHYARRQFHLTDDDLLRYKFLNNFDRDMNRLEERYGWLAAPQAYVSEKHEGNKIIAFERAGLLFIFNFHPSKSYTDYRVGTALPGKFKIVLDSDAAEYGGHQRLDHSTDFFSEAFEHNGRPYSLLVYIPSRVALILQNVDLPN
UniProt Q9UPW0: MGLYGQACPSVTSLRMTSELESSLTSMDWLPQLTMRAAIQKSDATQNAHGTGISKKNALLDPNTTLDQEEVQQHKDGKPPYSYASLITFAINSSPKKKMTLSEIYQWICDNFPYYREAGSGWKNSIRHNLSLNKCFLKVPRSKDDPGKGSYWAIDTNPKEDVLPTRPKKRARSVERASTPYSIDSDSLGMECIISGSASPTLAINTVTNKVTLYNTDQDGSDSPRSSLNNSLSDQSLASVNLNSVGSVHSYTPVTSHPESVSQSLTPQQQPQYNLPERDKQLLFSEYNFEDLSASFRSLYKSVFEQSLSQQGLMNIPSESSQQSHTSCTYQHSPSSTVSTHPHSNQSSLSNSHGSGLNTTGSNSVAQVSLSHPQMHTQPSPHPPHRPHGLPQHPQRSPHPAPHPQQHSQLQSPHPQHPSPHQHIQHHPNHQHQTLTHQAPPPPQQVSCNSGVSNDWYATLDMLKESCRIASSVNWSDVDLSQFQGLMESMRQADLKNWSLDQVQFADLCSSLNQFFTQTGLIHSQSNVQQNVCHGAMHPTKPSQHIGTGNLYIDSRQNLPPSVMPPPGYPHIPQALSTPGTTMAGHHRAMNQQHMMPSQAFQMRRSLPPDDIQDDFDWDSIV
UniProt O43524: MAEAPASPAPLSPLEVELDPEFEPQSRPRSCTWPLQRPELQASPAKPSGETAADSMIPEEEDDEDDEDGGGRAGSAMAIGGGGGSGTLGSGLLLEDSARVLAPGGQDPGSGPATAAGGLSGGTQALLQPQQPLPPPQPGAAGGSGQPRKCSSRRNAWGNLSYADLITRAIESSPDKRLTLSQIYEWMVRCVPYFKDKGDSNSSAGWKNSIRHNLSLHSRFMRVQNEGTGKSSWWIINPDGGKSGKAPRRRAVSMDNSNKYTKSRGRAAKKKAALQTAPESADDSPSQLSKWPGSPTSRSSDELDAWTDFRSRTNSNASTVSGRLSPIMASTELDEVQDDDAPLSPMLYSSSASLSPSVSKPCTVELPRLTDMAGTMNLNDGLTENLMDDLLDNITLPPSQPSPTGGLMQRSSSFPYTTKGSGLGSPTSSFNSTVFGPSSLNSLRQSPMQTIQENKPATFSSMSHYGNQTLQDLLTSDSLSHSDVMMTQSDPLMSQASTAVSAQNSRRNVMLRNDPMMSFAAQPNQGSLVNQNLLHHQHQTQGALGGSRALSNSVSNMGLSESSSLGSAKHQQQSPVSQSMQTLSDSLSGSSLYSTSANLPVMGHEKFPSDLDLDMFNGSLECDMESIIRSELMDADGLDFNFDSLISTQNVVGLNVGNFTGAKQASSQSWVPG
UniProt Q96I24: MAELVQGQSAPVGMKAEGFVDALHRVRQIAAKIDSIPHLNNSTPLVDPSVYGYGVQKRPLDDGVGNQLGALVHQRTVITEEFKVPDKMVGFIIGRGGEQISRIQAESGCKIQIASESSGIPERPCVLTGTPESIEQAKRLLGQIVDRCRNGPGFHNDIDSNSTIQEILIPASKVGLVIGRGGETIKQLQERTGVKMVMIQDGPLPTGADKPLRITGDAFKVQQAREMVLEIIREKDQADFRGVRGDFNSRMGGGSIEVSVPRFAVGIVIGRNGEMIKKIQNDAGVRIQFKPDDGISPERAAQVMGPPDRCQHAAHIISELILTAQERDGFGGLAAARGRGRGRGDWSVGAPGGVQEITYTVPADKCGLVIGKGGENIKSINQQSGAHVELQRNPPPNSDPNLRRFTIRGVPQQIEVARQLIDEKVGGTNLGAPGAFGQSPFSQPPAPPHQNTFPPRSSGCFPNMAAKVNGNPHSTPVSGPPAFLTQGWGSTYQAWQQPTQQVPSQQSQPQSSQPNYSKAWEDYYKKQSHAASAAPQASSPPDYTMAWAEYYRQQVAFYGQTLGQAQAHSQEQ
UniProt Q70Z53: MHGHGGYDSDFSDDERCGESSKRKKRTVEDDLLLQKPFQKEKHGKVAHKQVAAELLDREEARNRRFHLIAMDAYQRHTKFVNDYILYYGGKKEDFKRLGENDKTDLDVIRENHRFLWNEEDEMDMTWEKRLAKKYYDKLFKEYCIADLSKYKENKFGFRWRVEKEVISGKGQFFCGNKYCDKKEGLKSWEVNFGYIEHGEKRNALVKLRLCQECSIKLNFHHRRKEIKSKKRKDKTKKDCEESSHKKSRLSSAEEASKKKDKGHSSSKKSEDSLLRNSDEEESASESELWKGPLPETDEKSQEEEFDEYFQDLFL
UniProt Q9UQC2, whole entry, looked up: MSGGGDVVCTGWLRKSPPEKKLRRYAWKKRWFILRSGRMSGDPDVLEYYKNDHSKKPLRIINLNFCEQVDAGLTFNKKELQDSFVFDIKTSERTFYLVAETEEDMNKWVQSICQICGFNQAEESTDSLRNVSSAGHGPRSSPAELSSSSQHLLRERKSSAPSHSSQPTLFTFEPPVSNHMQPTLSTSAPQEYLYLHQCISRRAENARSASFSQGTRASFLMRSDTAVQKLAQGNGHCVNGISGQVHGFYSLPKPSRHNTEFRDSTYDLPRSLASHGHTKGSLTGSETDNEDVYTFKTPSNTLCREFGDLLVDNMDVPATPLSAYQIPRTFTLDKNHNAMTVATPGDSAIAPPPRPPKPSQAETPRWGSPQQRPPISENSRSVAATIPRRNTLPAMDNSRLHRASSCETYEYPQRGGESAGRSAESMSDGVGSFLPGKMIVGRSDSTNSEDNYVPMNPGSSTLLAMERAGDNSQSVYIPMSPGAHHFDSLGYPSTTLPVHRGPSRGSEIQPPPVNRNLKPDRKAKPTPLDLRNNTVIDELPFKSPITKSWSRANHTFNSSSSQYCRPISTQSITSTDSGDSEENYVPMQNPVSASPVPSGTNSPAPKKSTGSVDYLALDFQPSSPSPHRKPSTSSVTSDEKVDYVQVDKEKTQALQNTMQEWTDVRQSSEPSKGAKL

Tests used:
Assay in all cases: log2 fold change, soluble protein after heating vs DMSO (PISA); higher = thermal stabilisation; K562 lysate, 10 uM; active = over 0.2 and 3.5 SD of the protein, either way, in both replicates (recomputed)
[1] = compound: C1=CC=C(C=C1)[C@H](COC2=CC3=C(C=C2)NC(=O)N3)NC(=O)C4=CC=CN(C4=O)CC5=CC(=C(C=C5)F)F
Outline: (§1)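 Log-two fold change in thermal stability relative to solvent controls is reported from duplicates. For each sample, crude K562 extract from dounce-homogenised pellets in PBS pH 7.4 with 1 mM MgCl2, at 1 mg/mL protein, was treated with 10 μM compound for 30 min. Aliquots heated for 3 min across 48°C-58°C were pooled, brought to 0.5% NP-40 at 4°C and cleared at 21,000xg for 90 min. The supernatant was quantified by TMTpro 16plex LC-MS/MS with channel sums equalised.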

[2] = compound: CC1=C(SC2=C1C(=N[C@H](C3=NN=C(N32)C)CC(=O)N)C4=CC=C(C=C4)Cl)C
Outline: as §1

[3] = compound: CC1=C2C(=CC=C1)N=C(N(C2=O)C3=CC=CC=C3C)CN4C=NC5=C(N=CN=C54)N
Outline: as §1

[4] = compound: Cc1sc2c(c1C)C(c1ccc(Cl)cc1)=N[C@@H](CC(=O)OC(C)(C)C)c1nnc(C)n1-2
Outline: as §1

[5] = compound: c1ccc([C@@H]2C[C@H]2NC2CCNCC2)cc1
Outline: as §1

Measured: log2 fold change

FTL (UniProt P02792)
inactive: [1] -0.067 | [2] 0.127 | [3] -0.034 | [4] -0.03 | [5] -0.031

GABPB1 (UniProt Q06547)
inactive: [1] 0.044 | [2] -0.013 | [3] -0.04 | [4] -0.001 | [5] 0.132

GCDH (UniProt Q92947)
inactive: [1] 0.034 | [2] -0.032 | [3] -0.022 | [4] -0.008 | [5] -0.004

FSCN1 (UniProt Q16658)
inactive: [1] 0.024 | [2] -0.017 | [3] -0.01 | [4] 0.003 | [5] 0.04

FRG1 (UniProt Q14331)
inactive: [1] 0.028 | [2] 0.016 | [3] -0.022 | [4] 0.101 | [5] 0.042

FREM2 (UniProt Q5SZK8)
inactive: [1] 0 | [2] 0.074 | [3] 0.003 | [4] -0.133 | [5] -0.212

GABARAPL2 (UniProt P60520)
inactive: [1] -0.031 | [2] 0.028 | [3] 0.008 | [4] 0.017 | [5] 0.034

GAN (UniProt Q9H2C0)
inactive: [1] 0.045 | [2] 0.012 | [3] 0.036 | [4] -0.025 | [5] -0.083

GALNT2 (UniProt Q10471)
inactive: [1] 0.018 | [2] -0.009 | [3] 0.021 | [4] 0.004 | [5] -0.021

GCN1 (UniProt Q92616)
inactive: [1] -0.046 | [2] 0.003 | [3] 0.019 | [4] 0.035 | [5] 0.063

FUCA1 (UniProt P04066)
inactive: [1] 0.032 | [2] 0.018 | [3] 0.021 | [4] -0.038 | [5] -0.051

FTSJ1 (UniProt Q9UET6)
inactive: [1] 0.016 | [2] 0.013 | [3] -0.025 | [4] -0.005 | [5] 0.048

GFPT1 (UniProt Q06210)
inactive: [1] -0.021 | [2] -0.001 | [3] 0.021 | [4] 0.019 | [5] 0.058

G3BP1 (UniProt Q13283)
inactive: [1] 0.006 | [2] -0.007 | [3] -0.006 | [4] 0.045 | [5] -0.045

GBE1 (UniProt Q04446)
inactive: [1] -0.043 | [2] -0.007 | [3] 0.058 | [4] 0.009 | [5] 0.027

GDPGP1 (UniProt Q6ZNW5)
inactive: [1] -0.013 | [2] -0.025 | [3] -0.059 | [4] 0.028 | [5] -0.012

Reprinted at random: two records from the list
GFPT1 (UniProt Q06210)
inactive: [1] -0.021 | [2] -0.001 | [3] 0.021 | [4] 0.019 | [5] 0.058

FTSJ1 (UniProt Q9UET6)
inactive: [1] 0.016 | [2] 0.013 | [3] -0.025 | [4] -0.005 | [5] 0.048

Further records

GCFC2 (UniProt P16383)
inactive: [1] 0.065 | [2] 0.094 | [3] 0.014 | [4] -0.039 | [5] 0.086

GATAD2A isoform 3 (UniProt Q86YP4)
inactive: [1] -0.01 | [2] -0.006 | [3] 0.032 | [4] -0.015 | [5] 0.036

FXN (UniProt Q16595)
inactive: [1] 0 | [2] -0.096 | [3] -0.036 | [4] 0.012 | [5] 0.026

FOXJ3 (UniProt Q9UPW0)
inactive: [1] 0.004 | [2] -0.072 | [3] 0.013 | [4] -0.021 | [5] -0.026

FOXO3 (UniProt O43524)
inactive: [1] 0.011 | [2] 0.029 | [3] 0.029 | [4] -0.108 | [5] -0.117

FUBP3 (UniProt Q96I24)
inactive: [1] -0.052 | [2] 0.019 | [3] -0.007 | [4] -0.01 | [5] 0.011

FRA10AC1 (UniProt Q70Z53)
inactive: [1] 0.033 | [2] 0.009 | [3] 0.008 | [4] -0.012 | [5] 0.061

GAB2 (UniProt Q9UQC2)
inactive: [1] 0.034 | [2] -0.005 | [3] -0.063 | [4] 0.009 | [5] -0.021
